Where a protein sequence is shown, tags need not be part of it.
Key:
[1] = target: T1, 6His-ArsR2 (Pseudomonas putida KT2440) (UniProt Q88JD1); test: EMSA; details: no arsenite, 'gross KD'; EMSA: TRRG buffer (20 mM Tris-HCl pH 7.5, 50 mM KCl, 2 mM beta-mercaptoethanol, 10% glycerol), BSA, 25 ug/ml herring sperm DNA, 0.3 nM probe, 20 min 30 C; recombinant protein; residues 1-115; protein details: N-terminal MRGSHHHHHHGIL (pQE32); label: 32P 3' end label (Klenow fill-in at EcoRI end); probe letters rebuilt from the primers and the genome
T1 sequence (looked up): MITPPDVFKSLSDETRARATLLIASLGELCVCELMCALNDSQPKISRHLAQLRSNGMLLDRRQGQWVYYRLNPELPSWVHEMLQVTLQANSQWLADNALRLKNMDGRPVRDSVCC

[2] = target: T1, 6His-ArsR2 (Pseudomonas putida KT2440); test: competition with a labelled probe; details: unlabeled same-sequence probe competed (data not shown); EMSA: TRRG buffer (20 mM Tris-HCl pH 7.5, 50 mM KCl, 2 mM beta-mercaptoethanol, 10% glycerol), BSA, 25 ug/ml herring sperm DNA, 0.3 nM probe, 20 min 30 C; recombinant protein; residues 1-115; protein details: N-terminal MRGSHHHHHHGIL (pQE32); label: 32P 3' end label (Klenow fill-in at EcoRI end); probe letters rebuilt from the primers and the genome
[3] = target: T1, 6His-ArsR2 (Pseudomonas putida KT2440); test: DNase I footprinting; details: protected -36 to +23, 25-250 nM protein; footprinting: TRRG, 1 mg/ml BSA, 2 nM probe, 37 C; recombinant protein; residues 1-115; protein details: N-terminal MRGSHHHHHHGIL (pQE32); label: 32P 3' end label (Klenow fill-in at EcoRI end); probe letters rebuilt from the primers and the genome

## AGAGGATCCTGGCGATAAGCAGAGTGGCGCGAGCGCGGGTTTCGTCAGAGAGGCTTTTGAAGACATCGGGCGGTGTGATCATGGGGGTGCCTGTACATACGGAAAACCGAATATACGTATTTCCATATGTGCTAGCAAGCCTTCCTGGGCTTGTGCGCTTGCAGCTCGCCGTCGCCACGCCCTTCGGTCGACAAAAGCAGGGTTTTGGCAGGCTTCAGACGCTGATGGCAATGCAGGGTGTATAGTGCTTGCTCGGGTGACTGTCGTTCAGTGGCTCATAACCGAGATGCCAACATGAATT (double strand) [Pars2 probe]
[1]
  Kd: 500 nM
[2]
  binding result: binds
[3]
  binding result: binds

Source: paper PMC7994332, “A Bifan Motif Shaped by ArsR1, ArsR2, and Their Cognate Promoters Frames Arsenic Tolerance of Pseudomonas putida” (Frontiers in Microbiology, 2021)
